# Assay results taken from patent US20230416232A1, “PYRIMIDINE COMPOUNDS, COMPOSITIONS, AND MEDICINAL APPLICATIONS THEREOF” (Blueprint Medicines Corporation, priority 2020, published 2023).
# Sequences of proteins named here, by UniProt entry; tags and fusion partners are left off. A line that says so, or that is headed by a name, gives the form on record, which may keep a tag or linker.
# UniProt P00533, with tags, fused parts or gaps DUP767-769: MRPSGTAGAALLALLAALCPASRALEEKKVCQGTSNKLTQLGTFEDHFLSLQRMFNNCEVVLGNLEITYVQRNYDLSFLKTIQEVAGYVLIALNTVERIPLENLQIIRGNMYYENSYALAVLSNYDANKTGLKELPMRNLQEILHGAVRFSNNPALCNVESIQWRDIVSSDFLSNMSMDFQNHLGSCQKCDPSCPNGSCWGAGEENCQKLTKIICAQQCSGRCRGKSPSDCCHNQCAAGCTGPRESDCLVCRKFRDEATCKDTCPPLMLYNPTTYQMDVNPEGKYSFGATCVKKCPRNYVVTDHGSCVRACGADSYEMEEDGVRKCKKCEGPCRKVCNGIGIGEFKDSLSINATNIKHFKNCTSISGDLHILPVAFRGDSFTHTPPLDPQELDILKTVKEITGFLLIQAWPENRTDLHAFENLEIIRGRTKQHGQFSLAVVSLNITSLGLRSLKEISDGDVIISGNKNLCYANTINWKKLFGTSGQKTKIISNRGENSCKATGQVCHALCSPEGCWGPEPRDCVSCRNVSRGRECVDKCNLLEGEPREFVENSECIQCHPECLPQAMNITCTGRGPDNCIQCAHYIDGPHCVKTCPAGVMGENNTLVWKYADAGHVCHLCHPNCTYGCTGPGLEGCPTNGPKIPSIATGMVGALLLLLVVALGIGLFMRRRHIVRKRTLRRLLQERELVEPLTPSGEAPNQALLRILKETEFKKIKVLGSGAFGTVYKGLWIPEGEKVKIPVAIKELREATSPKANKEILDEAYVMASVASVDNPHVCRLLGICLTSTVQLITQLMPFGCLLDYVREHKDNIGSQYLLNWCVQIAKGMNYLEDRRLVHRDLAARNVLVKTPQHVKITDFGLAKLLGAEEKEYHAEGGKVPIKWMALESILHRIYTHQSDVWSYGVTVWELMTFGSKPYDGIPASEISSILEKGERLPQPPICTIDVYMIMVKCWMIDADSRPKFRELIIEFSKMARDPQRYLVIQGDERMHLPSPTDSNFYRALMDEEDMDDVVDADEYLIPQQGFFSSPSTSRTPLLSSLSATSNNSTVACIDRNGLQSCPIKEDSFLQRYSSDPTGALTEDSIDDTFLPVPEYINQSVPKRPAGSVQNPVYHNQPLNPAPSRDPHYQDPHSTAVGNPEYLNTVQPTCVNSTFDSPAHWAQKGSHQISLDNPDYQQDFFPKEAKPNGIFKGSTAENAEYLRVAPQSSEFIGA
# UniProt P00533, with tags, fused parts or gaps DUP768-770: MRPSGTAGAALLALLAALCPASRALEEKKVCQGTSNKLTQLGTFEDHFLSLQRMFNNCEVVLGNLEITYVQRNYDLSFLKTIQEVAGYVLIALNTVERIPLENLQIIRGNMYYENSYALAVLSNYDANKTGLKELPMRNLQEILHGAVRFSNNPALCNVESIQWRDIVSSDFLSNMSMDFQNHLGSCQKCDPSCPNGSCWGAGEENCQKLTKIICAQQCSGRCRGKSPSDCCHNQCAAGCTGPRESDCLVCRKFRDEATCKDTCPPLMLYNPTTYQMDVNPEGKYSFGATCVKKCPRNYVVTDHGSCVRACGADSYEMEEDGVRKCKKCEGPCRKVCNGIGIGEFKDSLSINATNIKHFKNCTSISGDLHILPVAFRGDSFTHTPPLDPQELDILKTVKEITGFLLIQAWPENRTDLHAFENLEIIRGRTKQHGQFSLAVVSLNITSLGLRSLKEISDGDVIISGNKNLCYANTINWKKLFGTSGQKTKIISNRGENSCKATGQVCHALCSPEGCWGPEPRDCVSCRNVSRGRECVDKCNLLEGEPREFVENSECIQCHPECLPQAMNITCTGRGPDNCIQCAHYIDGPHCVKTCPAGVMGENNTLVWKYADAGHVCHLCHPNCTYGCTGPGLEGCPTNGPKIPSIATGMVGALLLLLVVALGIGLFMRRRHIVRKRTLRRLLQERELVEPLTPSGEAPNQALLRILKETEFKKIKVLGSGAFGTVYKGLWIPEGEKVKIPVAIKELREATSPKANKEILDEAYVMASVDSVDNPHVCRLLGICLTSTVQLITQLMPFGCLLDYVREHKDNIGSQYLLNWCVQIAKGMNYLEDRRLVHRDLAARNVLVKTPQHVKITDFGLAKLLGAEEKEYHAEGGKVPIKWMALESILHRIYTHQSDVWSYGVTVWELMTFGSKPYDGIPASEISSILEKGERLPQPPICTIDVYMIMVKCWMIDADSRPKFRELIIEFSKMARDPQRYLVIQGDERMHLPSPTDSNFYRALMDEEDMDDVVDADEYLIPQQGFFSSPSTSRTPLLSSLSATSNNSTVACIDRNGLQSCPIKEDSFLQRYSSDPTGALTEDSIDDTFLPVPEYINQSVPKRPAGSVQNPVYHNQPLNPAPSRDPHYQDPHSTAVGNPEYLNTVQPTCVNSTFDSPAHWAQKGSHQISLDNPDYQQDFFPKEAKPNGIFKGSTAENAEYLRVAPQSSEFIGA
# UniProt P00533, with tags, fused parts or gaps DUP771-773: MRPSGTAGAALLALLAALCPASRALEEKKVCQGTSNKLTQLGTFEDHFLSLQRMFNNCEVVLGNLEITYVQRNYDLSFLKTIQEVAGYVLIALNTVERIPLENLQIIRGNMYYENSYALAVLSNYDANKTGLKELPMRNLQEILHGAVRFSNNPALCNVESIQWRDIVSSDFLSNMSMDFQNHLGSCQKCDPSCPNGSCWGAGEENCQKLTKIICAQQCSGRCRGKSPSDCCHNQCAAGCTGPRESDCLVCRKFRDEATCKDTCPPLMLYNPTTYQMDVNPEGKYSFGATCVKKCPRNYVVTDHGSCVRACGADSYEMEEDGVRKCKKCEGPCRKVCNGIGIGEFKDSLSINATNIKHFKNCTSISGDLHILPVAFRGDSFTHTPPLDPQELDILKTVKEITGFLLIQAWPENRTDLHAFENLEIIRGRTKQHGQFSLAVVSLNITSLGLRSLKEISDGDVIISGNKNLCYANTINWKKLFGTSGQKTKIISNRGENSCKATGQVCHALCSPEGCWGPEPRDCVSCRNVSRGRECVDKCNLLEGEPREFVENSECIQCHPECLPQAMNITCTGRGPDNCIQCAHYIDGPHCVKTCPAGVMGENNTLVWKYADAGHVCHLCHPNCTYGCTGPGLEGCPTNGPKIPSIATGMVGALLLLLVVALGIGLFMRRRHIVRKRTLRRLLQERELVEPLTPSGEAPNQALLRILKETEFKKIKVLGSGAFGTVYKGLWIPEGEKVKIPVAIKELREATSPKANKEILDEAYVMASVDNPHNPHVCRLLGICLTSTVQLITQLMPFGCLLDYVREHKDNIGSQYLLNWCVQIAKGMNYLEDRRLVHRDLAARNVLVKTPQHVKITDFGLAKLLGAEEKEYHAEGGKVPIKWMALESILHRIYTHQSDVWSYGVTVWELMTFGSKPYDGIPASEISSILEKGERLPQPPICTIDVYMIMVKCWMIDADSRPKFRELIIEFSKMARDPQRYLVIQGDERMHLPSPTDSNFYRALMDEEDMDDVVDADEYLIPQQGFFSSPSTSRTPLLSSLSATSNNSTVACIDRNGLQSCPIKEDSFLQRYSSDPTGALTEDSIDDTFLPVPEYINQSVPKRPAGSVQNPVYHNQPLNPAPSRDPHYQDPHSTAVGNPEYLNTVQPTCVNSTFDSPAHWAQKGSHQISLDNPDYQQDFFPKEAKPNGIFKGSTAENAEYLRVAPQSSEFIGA
# UniProt P04626, with tags, fused parts or gaps DUP772-775: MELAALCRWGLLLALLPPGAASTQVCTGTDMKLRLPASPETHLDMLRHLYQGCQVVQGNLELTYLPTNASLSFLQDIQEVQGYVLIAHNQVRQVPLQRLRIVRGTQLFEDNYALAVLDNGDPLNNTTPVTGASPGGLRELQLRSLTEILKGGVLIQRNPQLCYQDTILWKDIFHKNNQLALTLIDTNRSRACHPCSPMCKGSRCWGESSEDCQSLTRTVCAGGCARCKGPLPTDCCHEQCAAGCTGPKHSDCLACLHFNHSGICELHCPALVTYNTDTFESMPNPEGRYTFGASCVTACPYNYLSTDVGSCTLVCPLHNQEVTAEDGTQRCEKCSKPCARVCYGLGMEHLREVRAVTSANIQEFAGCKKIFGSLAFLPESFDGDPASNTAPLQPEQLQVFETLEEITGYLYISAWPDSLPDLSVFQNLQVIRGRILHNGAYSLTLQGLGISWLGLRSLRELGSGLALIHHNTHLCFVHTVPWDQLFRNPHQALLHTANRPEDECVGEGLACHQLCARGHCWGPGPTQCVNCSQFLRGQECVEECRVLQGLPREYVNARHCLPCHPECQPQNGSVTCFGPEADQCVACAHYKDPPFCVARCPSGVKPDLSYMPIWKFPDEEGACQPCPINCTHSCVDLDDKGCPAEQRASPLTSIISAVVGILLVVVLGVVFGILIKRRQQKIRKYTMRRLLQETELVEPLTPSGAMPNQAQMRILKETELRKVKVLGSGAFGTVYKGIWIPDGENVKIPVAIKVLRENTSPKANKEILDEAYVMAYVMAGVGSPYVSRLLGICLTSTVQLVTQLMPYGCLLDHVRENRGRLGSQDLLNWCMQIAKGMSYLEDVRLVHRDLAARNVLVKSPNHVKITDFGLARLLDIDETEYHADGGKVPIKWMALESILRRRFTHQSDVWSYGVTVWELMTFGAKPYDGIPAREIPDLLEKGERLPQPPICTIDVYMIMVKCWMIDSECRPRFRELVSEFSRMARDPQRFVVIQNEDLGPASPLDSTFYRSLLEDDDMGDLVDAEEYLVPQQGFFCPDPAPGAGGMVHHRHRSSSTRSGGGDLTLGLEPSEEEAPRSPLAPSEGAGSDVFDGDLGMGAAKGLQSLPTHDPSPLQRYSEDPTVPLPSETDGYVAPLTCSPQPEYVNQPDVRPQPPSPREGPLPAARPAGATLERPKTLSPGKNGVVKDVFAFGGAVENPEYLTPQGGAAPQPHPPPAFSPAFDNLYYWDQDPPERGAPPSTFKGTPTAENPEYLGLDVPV
# Where two headings read alike, the source gives them in different places. The match of structure and compound is tentative.
# Assays:
# Format in all cases: cell-based
# [1] = target: EGFR (A767_dupASV) expressing Ba/F3 stable cell line (Homo sapiens, UniProt P00533, DUP767-769, cells depend on it); test: Cellular proliferation (Alamar Blue) assay, EGFR (A767_dupASV) Ba/F3
# [2] = target: EGFR(D770_N771insSVD) expressing Ba/F3 stable cell line (Homo sapiens, UniProt P00533, DUP768-770, cells depend on it); test: Cellular proliferation (Alamar Blue) assay, EGFR(D770_N771insSVD) Ba/F3
# [3] = target: HER2 (A775_G776insYVMA) expressing Ba/F3 stable cell line (Homo sapiens, UniProt P04626, DUP772-775, cells depend on it); test: Cellular proliferation (Alamar Blue) assay, HER2 (A775_G776insYVMA) Ba/F3
# A431 cells = test: Cellular proliferation (Alamar Blue) assay, A431 cells
# [4] = target: EGFR (H773insNPH) expressing Ba/F3 stable cell line (Homo sapiens, UniProt P00533, DUP771-773, cells depend on it); test: Cellular proliferation (Alamar Blue) assay, EGFR (H773insNPH) Ba/F3
# [5] = read-out: D770 IC50, 72 hr, tested form: TFA
# [6] = read-out: A431 IC50, 72 hr, tested form: TFA
# [7] = read-out: A767 IC50, 72 hr, tested form: TFA
# [8] = read-out: YVMA IC50, 72 hr, tested form: TFA
# [9] = read-out: NPH IC50, 72 hr, tested form: TFA
Compound,"GI50 ([1]; read-out: A767 IC50, 72 hr)","GI50 ([2]; read-out: D770 IC50, 72 hr)","GI50 ([3]; read-out: YVMA IC50, 72 hr)","IC50 (A431 cells; read-out: A431 IC50, 72 hr)","GI50 ([4]; read-out: NPH IC50, 72 hr)","GI50 [2, 5]",IC50 (A431 cells; [6]),"GI50 [1, 7]","GI50 [3, 8]","GI50 [4, 9]"
C=CC(=O)Nc1cccc(Oc2nc(Nc3cnn(C)c3)ncc2-c2cnc(Cl)c(C)c2)c1,0.096 µM,0.084 µM,0.227 µM,1.68 µM,0.061 µM,–,–,–,–,–
C=CC(=O)Nc1cccc(Oc2nc(Nc3cnn(C)c3)ncc2-c2ccc(F)c(Cl)c2)c1,0.136 µM,0.271 µM,0.483 µM,1.32 µM,0.31 µM,–,–,–,–,–
C=CC(=O)Nc1cccc(Oc2nc(Nc3cnn(C)c3)ncc2-c2ccc(Cl)c(F)c2)c1,0.042 µM,0.035 µM,0.146 µM,0.482 µM,0.082 µM,–,–,–,–,–
C=CC(=O)Nc1cccc(Oc2nc(Nc3cnn(C)c3)ncc2-c2ccc(Cl)c(Cl)c2)c1,–,–,–,–,–,0.168 µM,0.821 µM,–,–,–
C=CC(=O)Nc1cccc(Oc2nc(Nc3cnn(C)c3)ncc2-c2cnc(Cl)c(F)c2)c1,0.034 µM,–,0.057 µM,0.608 µM,–,–,–,–,–,–
C=CC(=O)Nc1cccc(Oc2nc(Nc3cnn(C)c3)ncc2-c2ccc(C)c(F)c2)c1,0.083 µM,0.037 µM,0.129 µM,0.196 µM,–,–,–,–,–,–
C=CC(=O)Nc1cccc(Oc2nc(Nc3cnn(C)c3)ncc2-c2cnc(Cl)c(C(F)(F)F)c2)c1,0.095 µM,–,0.104 µM,0.985 µM,0.153 µM,–,–,–,–,–
C=CC(=O)Nc1cccc(Oc2nc(Nc3cnn(C)c3)ncc2-c2ccc(N(C)C)c(F)c2)c1,–,–,–,–,–,0.05 µM,0.108 µM,0.091 µM,0.197 µM,0.044 µM
C=CC(=O)Nc1cccc(Oc2nc(Nc3cnn(C)c3)ncc2-c2ccc(F)c(F)c2)c1,0.091 µM,0.071 µM,0.212 µM,0.767 µM,0.14 µM,–,–,–,–,–
C=CC(=O)Nc1cccc(Oc2nc(Nc3cnn(C)c3)ncc2-c2ccc(OC)c(F)c2)c1,0.017 µM,0.024 µM,0.062 µM,0.195 µM,0.052 µM,–,–,–,–,–
C=CC(=O)Nc1cccc(Oc2nc(Nc3cnn(C)c3)ncc2-c2cnc(OC)c(F)c2)c1,–,–,–,–,–,0.025 µM,0.15 µM,0.03 µM,0.062 µM,0.038 µM
C=CC(=O)Nc1cccc(Oc2nc(Nc3cnn(C)c3)ncc2-c2cnc(F)c(F)c2)c1,–,–,–,–,–,0.034 µM,0.586 µM,0.025 µM,0.065 µM,0.023 µM
